Experimental findings from publication PMC8403768 are described below.

Chains of the proteins cited; added tags and fusions are not shown.
UniProt P35637: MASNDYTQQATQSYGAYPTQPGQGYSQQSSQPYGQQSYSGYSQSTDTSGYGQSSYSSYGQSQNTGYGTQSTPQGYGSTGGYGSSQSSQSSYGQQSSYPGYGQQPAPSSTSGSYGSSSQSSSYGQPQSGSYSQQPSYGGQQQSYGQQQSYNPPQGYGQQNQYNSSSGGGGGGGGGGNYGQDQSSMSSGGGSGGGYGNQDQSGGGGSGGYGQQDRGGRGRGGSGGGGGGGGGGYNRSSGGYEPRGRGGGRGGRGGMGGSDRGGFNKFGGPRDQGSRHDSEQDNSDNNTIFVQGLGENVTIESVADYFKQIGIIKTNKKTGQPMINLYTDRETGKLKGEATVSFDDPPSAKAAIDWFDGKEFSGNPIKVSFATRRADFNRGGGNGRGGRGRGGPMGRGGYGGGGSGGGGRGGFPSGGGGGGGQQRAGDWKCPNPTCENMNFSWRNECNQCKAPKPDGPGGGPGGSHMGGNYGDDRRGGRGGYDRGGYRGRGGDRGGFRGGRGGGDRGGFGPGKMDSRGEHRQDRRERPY

The target in the assay is Fused in sarcoma (FUS) (human (endogenous in U-2 OS)) (UniProt P35637). In words: affinity purification with mass spectrometry; rapid IP MS of endogenous proteins: U-2 OS cells fixed with 1% formaldehyde, nuclei digested with benzonase, IP with anti-FUS antibody (Bethyl A300-302A) and protein G Dynabeads, RIPA washes, label-free quantitative MS; FUS-/- cells as negative control.

No constants are given. Whether binding was seen depends on the method and setting. In cells and extracts the contact can be indirect. These calls come from enrichment with a bait or labelling near it, and not all partners need be listed.

B1: UHRF1 (protein, UniProt Q96T88 1-793)
chain: MWIQVRTMDGRQTHTVDSLSRLTKVEELRRKIQELFHVEPGLQRLFYRGKQMEDGHTLFDYEVRLNDTIQLLVRQSLVLPHSTKERDSELSDTDSGCCLGQSESDKSSTHGEAAAETDSRPADEDMWDETELGLYKVNEYVDARDTNMGAWFEAQVVRVTRKAPSRDEPCSSTSRPALEEDVIYHVKYDDYPENGVVQMNSRDVRARARTIIKWQDLEVGQVVMLNYNPDNPKERGFWYDAEISRKRETRTARELYANVVLGDDSLNDCRIIFVDEVFKIERPGEGSPMVDNPMRRKSGPSCKHCKDDVNRLCRVCACHLCGGRQDPDKQLMCDECDMAFHIYCLDPPLSSVPSEDEWYCPECRNDASEVVLAGERLRESKKKAKMASATSSSQRDWGKGMACVGRTKECTIVPSNHYGPIPGIPVGTMWRFRVQVSESGVHRPHVAGIHGRSNDGAYSLVLAGGYEDDVDHGNFFTYTGSGGRDLSGNKRTAEQSCDQKLTNTNRALALNCFAPINDQEGAEAKDWRSGKPVRVVRNVKGGKNSKYAPAEGNRYDGIYKVVKYWPEKGKSGFLVWRYLLRRDDDEPGPWTKEGKDRIKKLGLTMQYPEGYLEALANREREKENSKREEEEQQEGGFASPRTGKGKWKRKSAGGGPSRAGSPRRTSKKTKVEPYSLTAQQSSLIREDKSNAKLWNEVLASLKDRPASGSPFQLFLSKVEETFQCICCQELVFRPITTVCQHNVCKDCLDRSFRAQVFSCPACRYDLGRSYAMQVNQPLQTVLNQLFPGYGNGR
Take B1: the binding result is given as “binds”.
